These are yes or no findings as the source states them, for the method shown. In cells and extracts the contact can be indirect. A yes stands for co-enrichment or nearness to the bait. Other partners may have been found. Where a sequence is shown, tags or fusion partners need not be part of it.
Target: T1, Schlafen family member 11 (SLFN11), Myc-FLAG-tagged, doxycycline-inducible (human) (UniProt Q7Z7L1)
T1 sequence: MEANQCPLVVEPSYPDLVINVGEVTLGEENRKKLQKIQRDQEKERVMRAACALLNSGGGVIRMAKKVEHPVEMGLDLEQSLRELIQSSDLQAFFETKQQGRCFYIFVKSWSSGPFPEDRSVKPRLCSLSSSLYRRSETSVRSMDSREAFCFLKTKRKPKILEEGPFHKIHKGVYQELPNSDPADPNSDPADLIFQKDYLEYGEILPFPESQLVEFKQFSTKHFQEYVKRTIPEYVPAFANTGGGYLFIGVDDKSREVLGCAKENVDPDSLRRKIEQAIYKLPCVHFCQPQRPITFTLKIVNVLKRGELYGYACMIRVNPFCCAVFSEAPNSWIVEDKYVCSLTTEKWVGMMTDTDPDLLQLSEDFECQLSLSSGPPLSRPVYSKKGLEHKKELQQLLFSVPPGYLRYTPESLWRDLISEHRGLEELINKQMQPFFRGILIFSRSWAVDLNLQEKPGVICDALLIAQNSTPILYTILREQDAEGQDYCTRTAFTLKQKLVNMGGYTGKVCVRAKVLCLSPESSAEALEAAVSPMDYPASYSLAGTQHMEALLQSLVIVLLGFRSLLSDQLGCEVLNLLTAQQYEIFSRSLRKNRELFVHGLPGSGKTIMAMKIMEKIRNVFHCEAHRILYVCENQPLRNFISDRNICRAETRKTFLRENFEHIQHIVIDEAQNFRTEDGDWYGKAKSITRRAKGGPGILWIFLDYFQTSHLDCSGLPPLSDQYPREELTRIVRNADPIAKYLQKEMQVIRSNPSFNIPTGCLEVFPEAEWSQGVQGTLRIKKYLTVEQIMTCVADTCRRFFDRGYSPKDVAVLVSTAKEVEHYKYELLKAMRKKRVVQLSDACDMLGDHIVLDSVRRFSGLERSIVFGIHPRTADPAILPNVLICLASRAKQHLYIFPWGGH
Test: affinity purification with mass spectrometry; IP of Myc-tagged SLFN11 with Myc-Tag-conjugated sepharose beads from NP-40 lysates of DOX-induced LN229 cells, untreated or irradiated with 8 Gy for 30 minutes; no-DOX samples as negative controls; LC/MS-MS

binding: binds
B1: NFκB2 (NFκB2/p100) (protein, UniProt Q00653-1 1-900)
chain: MESCYNPGLDGIIEYDDFKLNSSIVEPKEPAPETADGPYLVIVEQPKQRGFRFRYGCEGPSHGGLPGASSEKGRKTYPTVKICNYEGPAKIEVDLVTHSDPPRAHAHSLVGKQCSELGICAVSVGPKDMTAQFNNLGVLHVTKKNMMGTMIQKLQRQRLRSRPQGLTEAEQRELEQEAKELKKVMDLSIVRLRFSAFLRASDGSFSLPLKPVISQPIHDSKSPGASNLKISRMDKTAGSVRGGDEVYLLCDKVQKDDIEVRFYEDDENGWQAFGDFSPTDVHKQYAIVFRTPPYHKMKIERPVTVFLQLKRKRGGDVSDSKQFTYYPLVEDKEEVQRKRRKALPTFSQPFGGGSHMGGGSGGAAGGYGGAGGGGSLGFFPSSLAYSPYQSGAGPMGCYPGGGGGAQMAATVPSRDSGEEAAEPSAPSRTPQCEPQAPEMLQRAREYNARLFGLAQRSARALLDYGVTADARALLAGQRHLLTAQDENGDTPLHLAIIHGQTSVIEQIVYVIHHAQDLGVVNLTNHLHQTPLHLAVITGQTSVVSFLLRVGADPALLDRHGDSAMHLALRAGAGAPELLRALLQSGAPAVPQLLHMPDFEGLYPVHLAVRARSPECLDLLVDSGAEVEATERQGGRTALHLATEMEELGLVTHLVTKLRANVNARTFAGNTPLHLAAGLGYPTLTRLLLKAGADIHAENEEPLCPLPSPPTSDSDSDSEGPEKDTRSSFRGHTPLDLTCSTKVKTLLLNAAQNTMEPPLTPPSPAGPGLSLGDTALQNLEQLLDGPEAQGSWAELAERLGLRSLVDTYRQTTSPSGSLLRSYELAGGDLAGLLEALSDMGLEEGVRLLRGPETRDKLPSTAEVKEDSAYGSQSVEQEAEKLGPPPEPPGGLCHGHPQPQVH

Reference: publication PMC9648417
